Measurements reported in PMC4144329.

Chains of the proteins cited; added tags and fusions are not shown. Lines headed by an entry give the natural chain unless they say otherwise; changes in a name come on top.
UniProt Q9VF10: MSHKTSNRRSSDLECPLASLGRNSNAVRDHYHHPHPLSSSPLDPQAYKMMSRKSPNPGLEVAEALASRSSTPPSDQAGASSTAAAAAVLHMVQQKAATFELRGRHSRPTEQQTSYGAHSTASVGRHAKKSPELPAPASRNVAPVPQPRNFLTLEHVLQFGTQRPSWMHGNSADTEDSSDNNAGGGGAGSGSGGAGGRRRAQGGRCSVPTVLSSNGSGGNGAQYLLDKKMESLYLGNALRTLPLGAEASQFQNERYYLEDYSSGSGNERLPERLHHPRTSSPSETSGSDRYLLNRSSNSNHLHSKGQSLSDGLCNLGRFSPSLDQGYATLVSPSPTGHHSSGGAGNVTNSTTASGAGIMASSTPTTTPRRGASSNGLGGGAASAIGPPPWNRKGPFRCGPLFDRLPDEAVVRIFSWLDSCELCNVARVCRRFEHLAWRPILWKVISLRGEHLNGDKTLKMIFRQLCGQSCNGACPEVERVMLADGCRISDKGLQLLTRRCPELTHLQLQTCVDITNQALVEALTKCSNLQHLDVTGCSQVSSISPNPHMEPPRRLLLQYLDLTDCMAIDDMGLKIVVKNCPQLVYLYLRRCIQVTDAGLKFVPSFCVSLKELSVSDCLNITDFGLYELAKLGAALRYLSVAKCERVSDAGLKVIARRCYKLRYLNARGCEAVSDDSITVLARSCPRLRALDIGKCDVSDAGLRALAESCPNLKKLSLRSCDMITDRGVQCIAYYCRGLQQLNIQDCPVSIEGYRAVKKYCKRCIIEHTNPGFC
UniProt O76324: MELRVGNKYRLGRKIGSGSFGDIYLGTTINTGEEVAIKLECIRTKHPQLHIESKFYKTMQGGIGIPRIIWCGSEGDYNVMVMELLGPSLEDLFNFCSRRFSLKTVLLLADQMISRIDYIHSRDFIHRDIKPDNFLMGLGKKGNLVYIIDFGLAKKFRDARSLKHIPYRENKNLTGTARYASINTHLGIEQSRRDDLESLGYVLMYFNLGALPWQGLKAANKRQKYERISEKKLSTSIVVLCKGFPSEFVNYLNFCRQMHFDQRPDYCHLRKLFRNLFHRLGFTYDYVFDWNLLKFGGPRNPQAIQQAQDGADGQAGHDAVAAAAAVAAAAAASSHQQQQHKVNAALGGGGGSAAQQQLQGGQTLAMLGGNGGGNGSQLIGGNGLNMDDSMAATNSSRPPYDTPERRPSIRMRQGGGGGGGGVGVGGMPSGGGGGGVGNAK
UniProt O77430: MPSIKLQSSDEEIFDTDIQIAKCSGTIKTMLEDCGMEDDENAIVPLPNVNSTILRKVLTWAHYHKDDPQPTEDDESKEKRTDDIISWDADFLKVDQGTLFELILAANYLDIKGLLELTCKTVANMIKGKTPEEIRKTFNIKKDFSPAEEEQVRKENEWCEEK
UniProt Q24311: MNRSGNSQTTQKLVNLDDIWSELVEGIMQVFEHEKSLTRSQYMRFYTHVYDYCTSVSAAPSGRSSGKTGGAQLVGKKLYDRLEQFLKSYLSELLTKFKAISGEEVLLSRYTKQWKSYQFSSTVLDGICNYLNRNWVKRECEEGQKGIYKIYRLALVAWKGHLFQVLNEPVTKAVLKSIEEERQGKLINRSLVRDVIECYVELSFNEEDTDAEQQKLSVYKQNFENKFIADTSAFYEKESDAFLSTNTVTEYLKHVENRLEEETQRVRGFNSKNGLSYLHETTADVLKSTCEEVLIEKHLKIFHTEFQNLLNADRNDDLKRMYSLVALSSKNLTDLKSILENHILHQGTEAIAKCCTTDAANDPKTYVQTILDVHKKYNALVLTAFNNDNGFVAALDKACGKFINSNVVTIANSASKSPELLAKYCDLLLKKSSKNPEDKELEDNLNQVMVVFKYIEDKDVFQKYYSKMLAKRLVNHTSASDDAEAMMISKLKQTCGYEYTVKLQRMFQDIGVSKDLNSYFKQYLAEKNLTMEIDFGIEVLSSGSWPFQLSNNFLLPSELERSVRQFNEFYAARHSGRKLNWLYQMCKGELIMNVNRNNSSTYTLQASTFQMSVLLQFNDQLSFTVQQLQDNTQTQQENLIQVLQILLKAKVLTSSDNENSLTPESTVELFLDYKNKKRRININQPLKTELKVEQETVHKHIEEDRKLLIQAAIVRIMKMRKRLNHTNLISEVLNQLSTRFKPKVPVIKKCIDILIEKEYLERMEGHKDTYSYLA

Tests used:
[1] = biological target: FLAG-Fbxl7 (Drosophila F-box protein Fbxl7, full length) (Drosophila) (UniProt Q9VF10); assay: co-IP; S2R+ cells co-transfected; 50 µM MG132 4 hr before harvest; lysis buffer 20 mM HEPES pH 7.5, 5 mM KCl, 1 mM MgCl2, 0.1% NP-40; lysate incubated with anti-FLAG M2 affinity gel overnight at 4°C; beads washed twice and boiled in SDS sample buffer; western blot
[2] = biological target: FLAG-Fbxl7 (Drosophila F-box protein Fbxl7, full length) (Drosophila) (UniProt Q9VF10); assay: co-IP; S2R+ cells co-transfected; 50 µM MG132 4 hr before harvest; anti-FLAG M2 affinity gel overnight at 4°C; FLAG-protein complexes eluted off beads with 400 ng/µl 3x FLAG peptide for 30 min at 4°C (SkpA, Cul1 and Cindr co-IPs); western blot

Dco-V5 (Discs overgrown, casein kinase I) (from UniProt O76324 1-440) (enzyme)
binding [1]: binds

SkpA-HA (from UniProt O77430 1-162)
binding [2]: binds

Cul1-HA (from UniProt Q24311 1-774)
binding [2]: binds

These are yes or no findings as the source states them, for the method shown. Binding seen in cells or lysates may run through a third protein. Binding can be weak; no strength is given.
